For two molecules, binding results are on record in article PMC2806833.

Protein sequences, listed by entry. Tags and fused reporters are not part of them. Residues count along the entry.
UniProt Q28021, residues 6-553: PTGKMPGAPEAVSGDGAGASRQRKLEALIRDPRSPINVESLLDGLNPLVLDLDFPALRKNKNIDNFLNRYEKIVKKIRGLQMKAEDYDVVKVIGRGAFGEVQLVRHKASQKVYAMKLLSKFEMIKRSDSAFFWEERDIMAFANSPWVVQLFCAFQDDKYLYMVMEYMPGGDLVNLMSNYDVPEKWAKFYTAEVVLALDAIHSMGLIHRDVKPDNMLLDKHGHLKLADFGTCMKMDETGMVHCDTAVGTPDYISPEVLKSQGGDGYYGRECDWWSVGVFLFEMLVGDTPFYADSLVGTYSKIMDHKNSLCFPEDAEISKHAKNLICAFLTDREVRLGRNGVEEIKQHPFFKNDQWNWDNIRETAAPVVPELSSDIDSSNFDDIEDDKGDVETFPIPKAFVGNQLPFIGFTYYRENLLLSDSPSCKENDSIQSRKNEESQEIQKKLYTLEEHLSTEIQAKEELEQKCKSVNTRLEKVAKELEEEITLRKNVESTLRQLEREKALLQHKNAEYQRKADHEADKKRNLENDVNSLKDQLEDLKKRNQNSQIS
UniProt Q16512, residues 581-942: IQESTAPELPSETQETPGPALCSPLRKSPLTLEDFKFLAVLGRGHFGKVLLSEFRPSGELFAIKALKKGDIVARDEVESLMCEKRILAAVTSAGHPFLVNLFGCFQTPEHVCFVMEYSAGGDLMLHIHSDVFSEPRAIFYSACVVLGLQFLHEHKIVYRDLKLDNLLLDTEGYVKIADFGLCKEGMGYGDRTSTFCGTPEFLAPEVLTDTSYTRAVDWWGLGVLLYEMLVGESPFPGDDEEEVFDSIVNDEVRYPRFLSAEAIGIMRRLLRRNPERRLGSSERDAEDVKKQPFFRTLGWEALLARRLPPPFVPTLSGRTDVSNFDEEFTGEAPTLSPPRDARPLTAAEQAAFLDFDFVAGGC

Results are given in words; binding and its absence hold for the method and conditions named. In cells and extracts the contact can be indirect. Some results given as binding are weak or reduced against the parent protein; the word gives no strength.

The target in test [1] is GST-Rho-kinase-cat (active catalytic fragment of Rho-kinase/ROCK/ROK, 6-553 amino acids) (UniProt Q28021). The experiment in a line: pull-down; same affinity columns (GST-fused kinase fragment on glutathione-sepharose, rat brain fraction loaded); 50 mM and 1 M NaCl eluates analysed by immunoblot with anti-CRMP-2, anti-AP180 and anti-DCX Abs; only the target purified.
The target of test [2] is GST-PKN-cat (581-942 amino acids) (UniProt Q16512). The test is described as above.
Test [3] addresses GST-Rho-kinase-cat (active catalytic fragment of Rho-kinase/ROCK/ROK, 6-553 amino acids) (UniProt Q28021). Kind of test: pull-down; Rho-kinase-cat affinity column in the presence of ATP; data not shown; only the target purified.

B1: Doublecortin (DCX) (protein, UniProt Q9ESI7 1-365)
chain: MELDFGHFDERDKASRNMRGSRMNGLPSPTHSAHCSFYRTRTLQALSNEKKAKKVRFYRNGDRYFKGIVYAVSSDRFRSFDALLADLTRSLSDNINLLQGVRYIYTIDGSRKIGSMDELEEGESYVCSSDNFFKKVEYTKNVNPNWSVNVKTSANMKAPQSLASSNSAQARENKDFVRPKLVTIIRSGVKPRKAVRVLLNKKTAHSFEQVLTDITEAIKLETGVVKKLYTLDGKQVTCLHDFFGDDDVFIACGPEKFRYAQDDFSLDENECRVMKGNPSATAGPKASPTPQKTSAKSPGPMRRSKSPADSGNDQDANGTSSSQLSTPKSKQSPISTPTSPGSLRKHKDLYLPLSLDDSDSLGDSM
As to B1, the binding result in test [1] and in test [2] was “binds” throughout.

B2: AP180 (protein, UniProt Q05140 1-915)
chain: MSGQTLTDRIAAAQYSVTGSAVARAVCKATTHEVMGPKKKHLDYLIQATNETNVNIPQMADTLFERATNSSWVVVFKALVTTHHLMVHGNERFIQYLASRNTLFNLSNFLDKSGSHGYDMSTFIRRYSRYLNEKAFSYRQMAFDFARVKKGADGVMRTMVPEKLLKSMPILQGQIDALLEFDVHPNELTNGVINAAFMLLFKDLIKLFACYNDGVINLLEKFFEMKKGQCKDALEIYKRFLTRMTRVSEFLKVADEVGIDKGDIPDLTQAPSSLMETLEQHLNTLEGKKPGNNEGSGAPSPLSKSSPATTVTSPNSTPAKTIDTSPPVDIFATASAAAPVSSAKPSSDLLDLQPDFSGARAGAAAPVPPPTGGATAWGDLLGEDSLAALSSVPSEAPISDPFAPEPSPPTTTTEPASASASATTAVTAATTEVDLFGDAFAASPGEAPAASEGATAPATPAPVAAALDACSGNDPFAPSEGSAEAAPELDLFAMKPPETSAPVVTPTASTAPPVPATAPSPAPTAVAATAATTTAAAAATTTATTSAAAATTAAAPPALDIFGDLFDSAPEVAAASKPDVAPSIDLFGTDAFSSPPRGASPVPESSLTADLLSGSGFHCAEDDRHVPLFFTAVDAFAAPSPASTASPAKAESSGVIDLFGDAFGSSASETQPAPQAVSSSSASADLLAGFGGSFMAPSTTPVTPAQNNLLQPNFEAAFGTTPSTSSSSSFDPSGDLLMPTMAPSGQPAPVSMVPPSPAMSASKGLGSDLDSSLASLVGNLGISGTTSKKGDLQWNAGEKKLTGGANWQPKVTPATWSAGVPPQGTVPPTSSVPPGAGAPSVGQPGAGYGMPPAGTGMTMMPQQPVMFAQPMMRPPFGAAAVPGTQLSPSPTPATQSPKKPPAKDPLADLNIKDFL
On to B2, for which the binding entry is “binds” in test [3], “binds” in test [1] and “binds weakly” in test [2].
